PubChem BioAssay AID504793 – Drosophila RNAi Screening Center – 2011
The screen tested about 23,000 reagents; below is an unselected part of those that have a named target and a result. In the full data, 62 (0.27%) got an active call. 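Calls come from follow-up tests whose scores are not deposited, so confirmed genes may have low counts here; counts are not normalised per plate.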 Raw values are not corrected between plates. Entries without a mark were called inactive.

- Screen: 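Whole-genome screen for parts of the DNA damage checkpoint at G2/M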 (primary screen)
- Cell system: Drosophila S2R+ cells
- Reagents: long dsRNA against Drosophila genes, about 0.25 µg dsRNA per well
- Duration: 4 days of dsRNA, then 4 hours of drug before read-out
- Conditions: doxorubicin 0.5 µM for 4 hours to cause double-strand breaks, in cells also given a low, harmless dose of dsRNA against nbs to sensitise the assay
- Measured: 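Per-well count of mitotic cells stained for phospho-histone H3 after doxorubicin exposure, used as mitotic index; counts are raw and not normalised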
- Scale: mitotic cells: higher = more cells in mitosis, weaker G2 arrest
- Active means: 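Genes are called active only when high mitotic counts were reproduced with independent dsRNAs and mitosis was checked for delay without damage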
- Meaning of the calls: active = confirmed in follow-up tests; inactive = not confirmed

no.	Target gene	DRSC id	mitotic cells, replicate 1
1	Tmf (TATA element modulatory factor)	DRSC18368	11
2	Tmf (TATA element modulatory factor)	DRSC30004	1
3	CG2003	DRSC15411	6
4	CG30288	DRSC22005	9
5	CG30288	DRSC29991	8
6	CG3829	DRSC04423	10
7	Regnase-1 (Regnase 1)	DRSC14278	13
8	shtd (shattered)	DRSC20166	184
9	shtd (shattered)	DRSC27760	22
10	CG1103	DRSC24616	3
11	CycJ (Cyclin J)	DRSC08653	5
12	CycJ (Cyclin J)	DRSC29329	8
13	Klp59C (Kinesin-like protein at 59C)	DRSC04348	5
14	Klp59C (Kinesin-like protein at 59C)	DRSC24637	4
15	Letm1	DRSC04476	5
16	CG30094	DRSC22268	7
17	CG30094	DRSC27064	5
18	Scox (Synthesis of cytochrome c oxidase)	DRSC03117	8
19	Scox (Synthesis of cytochrome c oxidase)	DRSC26366	3
20	CG8008	DRSC07053	2
21	CG8008	DRSC27395	2
22	mey (morpheyus)	DRSC14468	7
23	mey (morpheyus)	DRSC27364	10
24	CG5381	DRSC02852	4
25	Camp (Cathelicidin-like antimicrobial protein)	DRSC07004	4
26	CG13055	DRSC09936	6
27	CG13055	DRSC25640	2
28	ind (intermediate neuroblasts defective)	DRSC23095	17
29	CG10565	DRSC11620	2
30	cav (caravaggio)	DRSC15995	4
31	cav (caravaggio)	DRSC26206	3
32	CG15239	DRSC17972	6
33	CG15239	DRSC25155	3
34	CG32313	DRSC21450	9
35	CG31076	DRSC16017	10
36	CG13721	DRSC08330	6
37	CG12716	DRSC19493	8
38	CG12716	DRSC28802	9
39	Klp59D (Kinesin-like protein at 59D)	DRSC04118	3
40	Klp59D (Kinesin-like protein at 59D)	DRSC24436	3
41	DAAM (Dishevelled Associated Activator of Morphogenesis)	DRSC18479	11
42	CG15800	DRSC04271	8
43	Myo95E (Myosin 95E)	DRSC15821	9
44	Or46a (Odorant receptor 46a)	DRSC07489	7
45	Or46a (Odorant receptor 46a)	DRSC07490	4
46	Or46a (Odorant receptor 46a)	DRSC21590	11
47	Or46a (Odorant receptor 46a)	DRSC29654	11
48	CG9849	DRSC04573	5
49	GCS1 (Glucosidase 1)	DRSC19744	8
50	GCS1 (Glucosidase 1)	DRSC25625	8
51	CG16953	DRSC15167	5
52	bip1	DRSC11327	5
53	cad (caudal)	DRSC23193	5
54	cad (caudal)	DRSC27989	13
55	CG18233	DRSC10308	4
56	CG7544	DRSC07023	22
57	SdhA (Succinate dehydrogenase, subunit A (flavoprotein))	DRSC07547	9
58	CG31183	DRSC14403	5
59	CG31183	DRSC15554	2
60	Cyp4p3 (Cytochrome P450 4p3)	DRSC07374	9
61	Cyp4p3 (Cytochrome P450 4p3)	DRSC26733	10
62	CG1688	DRSC23207	9
63	BubR1 (Bub1-related kinase)	DRSC04838	10
64	goe (gone early)	DRSC19345	12
65	goe (gone early)	DRSC29879	8
66	peb (pebbled)	DRSC23057	7
67	peb (pebbled)	DRSC26695	7
68	Fitm (Fat storage inducing transmembrane protein)	DRSC09772	7
69	Fitm (Fat storage inducing transmembrane protein)	DRSC28750	6
70	tll (tailless)	DRSC17085	5
71	tll (tailless)	DRSC28584	3
72	CG15864	DRSC15122	2
73	CG15864	DRSC25659	7
74	Hsp67Ba (Heat shock gene 67Ba)	DRSC11191	5
75	Hsp67Ba (Heat shock gene 67Ba)	DRSC23678	1

Reformatted: 12 of the entries above.
{"Target gene":"mey (morpheyus)","DRSC id":"DRSC14468","mitotic cells, replicate 1":7}
{"Target gene":"mey (morpheyus)","DRSC id":"DRSC27364","mitotic cells, replicate 1":10}
{"Target gene":"CG5381","DRSC id":"DRSC02852","mitotic cells, replicate 1":4}
{"Target gene":"Camp (Cathelicidin-like antimicrobial protein)","DRSC id":"DRSC07004","mitotic cells, replicate 1":4}
{"Target gene":"CG13055","DRSC id":"DRSC09936","mitotic cells, replicate 1":6}
{"Target gene":"CG13055","DRSC id":"DRSC25640","mitotic cells, replicate 1":2}
{"Target gene":"ind (intermediate neuroblasts defective)","DRSC id":"DRSC23095","mitotic cells, replicate 1":17}
{"Target gene":"CG10565","DRSC id":"DRSC11620","mitotic cells, replicate 1":2}
{"Target gene":"cav (caravaggio)","DRSC id":"DRSC15995","mitotic cells, replicate 1":4}
{"Target gene":"cav (caravaggio)","DRSC id":"DRSC26206","mitotic cells, replicate 1":3}
{"Target gene":"CG15239","DRSC id":"DRSC17972","mitotic cells, replicate 1":6}
{"Target gene":"CG15239","DRSC id":"DRSC25155","mitotic cells, replicate 1":3}
